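Genome-wide siRNA knockdown in TC32 Ewing sarcoma cells, comparing luciferase light from an NR0B1-promoter reporter with a CMV-promoter reporter 48 hours after transfection. Each siRNA was applied at 20 nM. A z-score of the log NR0B1-over-CMV signal, less the median of siRNAs with the same seed; more negative means a stronger specific loss of the NR0B1 reporter.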

The strongest results of the screen are mostly left out here. Sequences are the guide (antisense) strand, without overhang.

siRNA | target gene | seed-corrected z-score
UUCUUCAAACCCUCAAAGC | GSTM5 | -0.7373
UGGUUGUCAGGUUCCUUGG | GGT1 | 0.03569
ACAGCUAUUACCAUCCUUG | POLG | -1.935
UGCGUUACUUGAAUGUUGG | SLTM | 0.1674
UCCCGAUUAACUGUUGGAG | USP8 | -0.5967
UGUAGACUAAGGGAUGAUG | WNK1 | -1.037
AAAUCGUUCAAUGAGCUCC | PPP4R1 | 0.07467
UCAUUGGCCUCGUUGGCCU | SPANXB1 | -0.5914
UUUGUCUAAAUAAUCUCGG | FHOD3 | 0.02239
UGUAGUCUAAAGGAUGGUG | SEMA3C | -1.32
UUUCGAGUAGCUGUAAUAC | AXIN2 | 0.802
UUGGUAAUAUCUCUUUAGC | CCDC148 | 0.3633
AUUGUAUCCAGCAAACAGC | GNB5 | -0.4193
ACUAGAAUCACUUGCAGCC | MAEL | -0.2355
UUCGCAUCAAUUCCACUUG | PRC1 | 0.5456
UUCUCUAUCAGCAACAACC | DPH5 | -0.2285
AGCAGUGCGACAUCCUUGC | CCR10 | -0.6703
UGAUCUAAAUACAUCAUUC | FCRL4 | 0.09306
UUGUUGUAAAAUAUGUCUG | WDPCP | 0.9601
UAAGUUCCCAUUUCACAUU | CXorf38 | 0.3032
UUCAGGGUGACAUUGAAGG | KANSL3 | -0.1126
AAUCCUAGAUGAAAAUUCC | ASGR1 | -0.02083
UUUAGUCAAAAACUUAGGC | HBS1L | -0.0823
UAGGUAGCAAUGAAUAGUG | CNKSR2 | -0.1209
UCUGGUACAGAGGUUCAUC | ARHGEF15 | 1.908
UAUUUAGUGCCAUUGGUUU | TPTE2P2 | -1.071
UUAAGUCUUAAAAGGAUUG | TIMM23B | -0.1239
UUAUUGGUGAAAGUUGAGC | SLC5A7 | 0.09706
UUAGAUUAUAUGCUCGAGG | SETDB2 | -0.4674
UGACUAACAUUGACAAGGC | NPHP3 | -0.3032
UUCUUGAUCACGAAGCCGA | SDCBP2 | 0.08875
ACCUUGAUGAGACCAUUGC | RPS16 | 2.06
UGUUGUUCAGGAUCAGACC | ASPN | 0.2346
UCCAGUUUACAAACUGUGC | ELANE | -0.5113
UAUCUAAUGAGGGAGAUAG | GJA9 | -0.3893
UAAGUUUCCGGAGGACCUC | TTC30B | -0.8509
UGUAUAGUCAGCAAGAUUC | PASK | -0.4844
UUCUCGACCUCAUCAGUUG | ZNF638 | -0.9567
UUCGGAGCAGUGGUUGUAC | SLC22A18 | -0.138
AAUGUAACAAGUAGUACUC | NUP205 | 0.8809
UUGCAGAUGAGGUUCACCC | RUNDC1 | -1.053
UCAUGUACUAUGUGCAUCU | CA4 | 0.4157
AGAUUCACCACUUCGUUGC | UPF2 | 2.601
UUGUUGAACACCGAAAUCU | C5orf49 | 2.809
AGCUAGUUCAGUUAGUUCC | ACSL3 | 0.5112
UAUUUUACUUUAGCUCGUG | EGLN1 | 0.3535
UAAACGGAAUUGUUUAAAG | GABRG3 | -0.09255
UUGAGUGUGACCAUCAUGG | GREM1 | 0.1346
UCUUUUUACUCAGAAAGCC | ISG20L2 | 0.7367
UACUCGUGUACAAUUCGGC | FERMT3 | 1.323
UAUCUUUACGCUUUCCACC | PDCD4 | -1.002
UCUUCGCCCUGACUUUUCC | CCDC114 | -0.3682
UCACUGAGCAAGGGUAUAU | SPDYE10P | -0.0213
UCAUAUGGUAGGAUUAAUC | ARID5B | 0.6109
UUGACGGUGACAUUUGUGC | RDH14 | 0.3464
AAAGCUGGAUUUAUAGUCC | TOMM34 | -0.03751
AAACUGACAGCGGUGAACC | KLF7 | 0.0311
UUAUCGUUGGUUGAGAUCC | PIWIL4 | -0.6331
UUCCGUUUUCUGAUACUGC | ZNF567 | -0.1493
UGUGAUUCAAACCUUGAUC | ABHD12 | 0.8973
UUCCAAUUCCCUGUGAACU | LINC00284 | -0.5747

Repeated from the top, 4 entries:

siRNA,target gene,seed-corrected z-score
UUCUUCAAACCCUCAAAGC,GSTM5,-0.7373
UGGUUGUCAGGUUCCUUGG,GGT1,0.03569
ACAGCUAUUACCAUCCUUG,POLG,-1.935
UGCGUUACUUGAAUGUUGG,SLTM,0.1674

Data taken from PubChem BioAssay AID1159506, deposited by NCATS (2015).